Experimental data from PubChem BioAssay AID2685 (National Center for Advancing Translational Sciences (NCATS), 2010).
“And” between values parts separate entries of the source, which are not always exact repeats. Equal entries are not always repeated. Screen size: about 320,000 compounds; about 2,100 (0.66%) were called active. Inconclusive results, whose numbers are uncertain, are shown with a selection of clear calls. Calls come from the whole dose curve; as a rule, active = well fitted inhibition curve with a large enough effect in the signal ratio, with a control signal flat (not every such curve was filed as active); inconclusive = small, poorly fitted or top-dose-only effect, or effect the other way, or a change in a side signal; inactive = flat fitted curve, though single readings scatter; the % refers to the signal ratio. A potency beside an inconclusive call is a rough fit, not a confirmed value.
% is set by controls: 0 for no effect and ±100 for the full control effect; potency is the fitted concentration of half-maximal effect.

Test: qHTS Assay for Lipid Storage Modulators in Drosophila S3 Cells
Settings: BODIPY lipid droplet fluorescence, 18-24 h, cells fed with added oleic acid; lipid storage change, negative = inhibition: at 46.1 µM (top of the series) unless noted
Method in brief: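 Drosophila S3 cells got compounds at several concentrations plus oleic acid (400 uM solution). Laser-scanning cytometry with 488 nm excitation read lipid droplets at 500-530 nm and cells at 575-640 nm. Percent activity was relative to 20 uM Triacsin C.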
With `O=C(NCCCN1CCOCC1)c1cc2c(s1)CCC2` the lipid storage change, negative = inhibition was inconclusive: -0.882%.
In the case of `O=c1c2cc(NC(=S)NC3CCN(Cc4ccccc4)CC3)ccc2nc2n1CCCCC2`, the lipid storage change, negative = inhibition is reported as inconclusive: 27%.
With `O=C(CCCOc1ccccc1)N1CCN(C(=O)c2ccco2)CC1` the Potency was inconclusive: 29.1 µM [activator, single point].
In the case of `Cc1cc(C(=O)N/N=C/c2ccc(-c3cccc(Cl)c3Cl)o2)n[nH]1`, the “lipid storage change, negative = inhibition” value is reported as inactive: 2.75%.
In the case of `Cc1nc(N[C@@H](Cc2c[nH]c3ccccc23)C(=O)O)c2oc3ccccc3c2n1`, the lipid storage change, negative = inhibition is reported as inconclusive: -16.5%.
In the case of `CCOC(=O)N1CCc2[nH]c3ccc(C)cc3c2C1`, the lipid storage change, negative = inhibition is reported as inconclusive: -26.5%.
For `FC(F)Oc1ccc(NC(=S)NC2CCSc3ccccc32)cc1` (stereo not drawn), the Potency was inconclusive: 29.1 µM [activator, single point].
With `Fc1ccc(Nc2nc(N3CCOCC3)c3ccccc3n2)cc1` the lipid storage change, negative = inhibition was inconclusive: 3.56%.
With `COc1cc2c(cc1OC)C1O[C@](c3ccsc3)(C2)OC2=C1C(=O)CC(C)(C)C2` the lipid storage change, negative = inhibition was inconclusive: 8.79% [at 9.22 µM].
With `O=C(/C=C/c1ccc2c(c1)OCO2)Nc1c(C(=O)O)[nH]c2ccccc12` the lipid storage change, negative = inhibition was inconclusive: 20.8%.
In the case of `Nc1cc(=O)[nH]c(SCC(=O)N2CCN(S(=O)(=O)c3ccc4ccccc4c3)CC2)n1`, the Potency is reported as inconclusive: 0.13 µM [falling, full curve, poor fit].
In the case of `COCCN(CCOC)C(=S)Nc1ccccc1Cl`, the lipid storage change, negative = inhibition is reported as inconclusive: -0.858%.
In the case of `C=CCNS(=O)(=O)c1ccc(C(=O)OCc2cc(=O)oc3cc(OC)ccc23)cc1`, the lipid storage change, negative = inhibition is reported as inconclusive: -51.9%.
With `O=C(CCn1c(=O)[nH]c2ccsc2c1=O)N(CCc1ccccc1)Cc1ccccc1` the Potency was inconclusive: 0.0461 µM [falling, full curve, poor fit].
In the case of `CC(C)NC(=O)NC(=O)COC(=O)Cc1c(F)cccc1Cl`, the lipid storage change, negative = inhibition is reported as inconclusive: 53.8%.
With `CCCC1=C(C(=O)OCC)C(c2ccncc2)n2ncnc2N1` (stereo not drawn) the lipid storage change, negative = inhibition was inconclusive: -0.889%.
For `Cc1ccccc1C(=O)Nc1ccc(S(=O)(=O)N2CCCC2)cc1`, the Potency was inconclusive: 29.1 µM [falling, single point].
For `CC(C)c1ccc(NC(=O)c2snc3ccc(Cl)cc23)cc1`, the Potency was inconclusive: 29.1 µM [falling, single point].
For `CCc1cccc(C)c1NC(=O)CC1Oc2ccc(C)cc2NC1=O` (stereo not drawn), the lipid storage change, negative = inhibition was inconclusive: 0.864%.
With `C/C(=N/OC(=O)c1ccc(C)cc1)c1cccs1` the Potency was inconclusive: 29.1 µM [rising, single point].
With `O=C1CCCC2=C1C(c1cccs1)n1nc(SCc3ccccc3)nc1N2` (stereo not drawn) the lipid storage change, negative = inhibition was inconclusive: 66.7%.
For `CCNC(=O)CN(CCc1ccccc1)S(=O)(=O)c1ccc(OC)cc1`, the Potency was inconclusive: 0.0052 µM [falling, full curve, poor fit].
With `CC(C)OC(=O)c1cccc(-c2ccc(C=O)o2)c1` the lipid storage change, negative = inhibition was inconclusive: 41.4%.
In the case of `CC1CCCN(C(=O)COC(=O)Cc2c[nH]c3ccccc23)C1` (stereo not drawn), the lipid storage change, negative = inhibition is reported as inconclusive: -56.2%.
In the case of `CN(C)c1ccc(/C=N\NC(=S)SCN2C(=O)C3CCC(C)(C2=O)C3(C)C)cc1` (stereo not drawn), the lipid storage change, negative = inhibition is reported as inconclusive: -26.2%.
For `CCCCCCOc1ccc(C(=O)NCCCn2ccnc2)cc1`, the lipid storage change, negative = inhibition was inconclusive: 6.06%.
For `Cc1cc(C(=O)Nc2ccccc2C)on1`, the lipid storage change, negative = inhibition was inconclusive: 57%.
In the case of `CCOC(=O)C1CCCN(c2nnnn2-c2ccccc2)C1` (stereo not drawn), the lipid storage change, negative = inhibition is reported as inconclusive: 40.7%.
In the case of `CCN(CC)C(=O)Cn1cc(C(=O)C(=O)N2CCN(Cc3ccc4c(c3)OCO4)CC2)c2ccccc21`, the Potency is reported as inconclusive: 0.231 µM [activator, single point].
With `CC(=O)NC(Cc1ccc(F)cc1)C(=O)NC1CCN(S(=O)(=O)c2ccccc2)CC1` (stereo not drawn) the Potency was inconclusive: 0.116 µM [falling, single point].
For `Cc1ccc(C)c(-n2nnnc2Sc2nnnn2-c2ccccc2)c1`, the lipid storage change, negative = inhibition was inconclusive: 0.664%.
For `CC(=O)C(=Nc1ccccc1Cl)NNc1ccc(Cl)cc1`, the Potency was active: 23.1 µM.
For `CCNC(=S)N/N=C/c1cc(C)n(-c2ccc(Cl)cc2)c1C`, the lipid storage change, negative = inhibition was inconclusive: 38.3%.
In the case of `CCOC(=O)c1c(NC(=O)C2CC2)sc2c1CC(C)(C)OC2`, the “lipid storage change, negative = inhibition” value is reported as inactive: -4.23%.
With `Cc1cc(N/C=C\c2nnnn2-c2ccccc2)no1` the Potency was inconclusive: 29.1 µM [falling, single point].
For `CCCc1cc(=O)n2nc(N3CCC(C(=O)N4CCN(c5ccc(OC)cc5)CC4)CC3)sc2n1`, the lipid storage change, negative = inhibition was inconclusive: -48.2%.
With `CCN(CC)c1ccc(NC(=O)C2=CCN(S(=O)(=O)c3ccc(F)cc3)CC2)c(C)c1` the lipid storage change, negative = inhibition was inconclusive: 12.5%.
For `[O-]/[N+](=C\c1ccccc1)[C@@H]1CCCC[C@@H]1/[N+]([O-])=C/c1ccccc1`, the Potency was inconclusive: 3.66 µM [falling, single point].
For `Cc1ccc(NC(=O)C2CCN(S(C)(=O)=O)CC2)cc1Cl`, the lipid storage change, negative = inhibition was inconclusive: -41%.
In the case of `O=C(Nc1ccc2c(c1)OCCO2)c1cc(-c2ccccn2)nc2ccc(Br)cc12`, the Potency is reported as inconclusive: 20.6 µM [cytotoxic, single point].
For `CC1(C)N([O-])C(c2ccccc2)=C[N+](=O)C1(C)C`, the Potency was inconclusive: 0.58 µM [activator, single point].
In the case of `CCCCc1nc2cc(C(=O)N3CCCCC3C(=O)OC)ccc2o1` (stereo not drawn), the Potency is reported as inconclusive: 6.51 µM [falling, single point].
In the case of `CC(=O)N=C1C=CC(=CN(O)C(C)(C)Cc2ccccc2)C=C1`, the lipid storage change, negative = inhibition is reported as inconclusive: 12.3%.
With `Cc1nn(CCCC(=O)Nc2cc(Oc3ccccc3)cc([N+](=O)[O-])c2)c(C)c1[N+](=O)[O-]` the lipid storage change, negative = inhibition was inconclusive: -28.4%.
With `Cc1nc2ccccc2nc(C)c1=NOCc1ccc(Cl)cc1Cl` the Potency was inconclusive: 8.2 µM [activator, partial curve].
With `CCOc1cc(N2CCOCC2)c(OCC)cc1NC(=O)C1CC(=O)N(c2ccc(C)cc2)C1` (stereo not drawn) the Potency was inconclusive: 3.66 µM [activator, full curve].
In the case of `CC1=CC(C)=Nc2ccc(C)cc2N1`, the lipid storage change, negative = inhibition is reported as inconclusive: 4.09% and inconclusive: 62.2%.
In the case of `CCCN1C(=O)CC(C(=O)OC)=C1C`, the lipid storage change, negative = inhibition is reported as inconclusive: -29.9%.
